# According to PubChem BioAssay AID504444 (National Center for Advancing Translational Sciences (NCATS), 2011):
# About 7,500 (2.1%) of roughly 360,000 compounds were called active. The inconclusive results got no clear call from the source; some entries with a clear call stand among them for comparison. The call rests on the fitted dose curve; in most records, active means well fitted inhibition curve with a large enough effect; inconclusive means small, poorly fitted or top-dose-only effect, or effect the other way; inactive means flat fitted curve, though single readings scatter. Where the call is inconclusive, the potency comes from a doubtful curve fit.
# Experiment: Nrf2 qHTS screen for inhibitors; further: nearly all actives have a fitted effect of over 60% in size
# Conditions: A549 ARE-Fluc reporter, luciferase luminescence, 18-24 h; activity change, negative = inhibition: at 46 µM (top of the series)
# In short: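 Reporter: ARE-Fluc in A549. Exposure: 18-24 h, 37 °C, 5% CO2, 5% FBS OPTI-MEM. Readouts: fluorescent cytotoxicity (CellTiter-Fluor), then luminescent Nrf2 signal after BugLite.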
# On the % scale 0 is the no-effect control and ±100 the full control effect; potency means the concentration at half of the fitted maximal effect.
SMILES,Potency,"activity change, negative = inhibition"
CC(=O)c1ccc(OCCCC(=O)N2CCN(S(=O)(=O)c3cccs3)CC2)cc1,"inconclusive: 25.9 µM [falling, partial curve, poor fit]",
O=C(Nc1ccc(Cc2nc3ccccc3s2)cc1)c1ccncc1,"inconclusive: 25.9 µM [falling, single point]",
Cc1cnc(NC(=O)c2cccs2)s1,"inconclusive: 4.61 µM [activator, full curve]",
Cc1ccc(Cl)cc1NC(=O)CC(O)(C(F)(F)F)C(F)(F)F,"inconclusive: 20.6 µM [falling, single point]",
COc1ccc(Cl)cc1N1C(=O)/C(=C\c2sccc2C)N=C1SCC(=O)NC1CC1,"inconclusive: 29.1 µM [falling, single point]",
CCc1cccc(C)c1NC(=O)CSc1nc2ccccc2nc1N1CCOCC1,inactive,
CC1(C)c2[nH]c3ccccc3c2C[C@@H]2C(=O)N(Cc3ccccc3)C(=O)N21,"inconclusive: 23.1 µM [falling, single point]",
O=c1[nH]c(=O)n(Cc2ccco2)c2c1C(C(F)(F)F)(C(F)(F)F)N=C(c1ccc(F)cc1)N2,active: 4.11 µM,
COc1ccc(-n2ncc3c(SCC(=O)N4CCN(c5ccccc5OC)CC4)ncnc32)cc1,inactive,
COc1ccc(CCN2C(=O)C3C4C=CC(C5CC45)C3C2=O)cc1OC (centres undefined),inactive,
CC1(C)O[C@H]2[C@@H](O1)[C@@H](C(=O)Nc1ccc(F)c(F)c1)O[C@@H]1OC(C)(C)O[C@@H]12,inactive,
Cc1ccc(-c2nc3ncccc3o2)cc1NC(=O)CC(C)C,inactive,
COc1ccc(Cn2c(SCc3ccc(C(=O)NCc4cccs4)cc3)nc3cccnc32)cc1,inactive,
CC1CC(C)CN(S(=O)(=O)c2ccc(NC(=O)C3CC(=O)N(Cc4ccccc4)C3)cc2)C1 (centres undefined),"inconclusive: 29.1 µM [falling, single point]",
C=CCn1c(COc2ccc(Cl)cc2)nnc1SCc1ccc(C#N)cc1,"inconclusive: 25.9 µM [falling, single point]",
CCOC(=O)CCNC(=O)N1CCCC(C(=O)c2cccc(OC(C)C)c2)C1 (centres undefined),inactive,
CSc1ccc(CCNC(=O)CN2C(=O)c3cccnc3Oc3ccc(C)cc32)cc1,"inconclusive: 29.1 µM [falling, single point]",
COc1ccc(OC)c(Nc2nc(NCc3ccco3)c3ccccc3n2)c1,inactive,
O=C(O)CS(=O)(=O)c1ccc(Oc2ccc(S(=O)(=O)CC(=O)O)cc2)cc1,"inconclusive: 32.6 µM [falling, single point]",
CCc1ccc(NC(=O)Nc2cccs2)cc1,"inconclusive: 14.6 µM [activator, partial curve, poor fit]",
CCN1CCN(S(=O)(=O)c2ccc(Cl)c(C(=O)Nc3nnc(CC(C)C)s3)c2)CC1,"inconclusive: 10.3 µM [falling, partial curve]",
CCN(C1CCCCC1)S(=O)(=O)c1ccc(S(=O)(=O)NCc2ccncc2)cc1,active: 8.2 µM,

SMILES,Potency,"activity change, negative = inhibition"
COc1ccc2c(c1OC)C(=O)N(c1cccc(C(F)(F)F)c1)C2,"inconclusive: 1.84 µM [activator, partial curve, poor fit]",
N=c1n(CCN2CCCCC2)c2ccccc2n1CC(O)COc1ccc(Cl)cc1Cl (centres undefined),"inconclusive: 20.6 µM [falling, single point]",
O=C(O)c1cc(N/N=C/C=C/c2ccccc2[N+](=O)[O-])ccc1Cl,"inconclusive: 18.4 µM [activator, partial curve]",
CC(C)c1ccc(NCCC(=O)c2cccs2)cc1,"inconclusive: 9.2 µM [activator, partial curve]",
Cc1ccc(Cc2cnc(NC(=O)/C(C#N)=C/c3ccc(-c4ccccc4[N+](=O)[O-])o3)s2)cc1,"inconclusive: 18.4 µM [falling, partial curve]",
Cc1cccc(S(=O)(=O)c2c(N)n(/N=C/c3ccccc3)c3nc4ccccc4nc23)c1,"inconclusive: 0.184 µM [falling, full curve]",
COc1ccc(C(=O)Nc2noc3ccccc23)cc1,"inconclusive: 0.082 µM [activator, full curve]",
CN(C)CCCn1c(SCc2ccc(Cl)cc2)nnc1-c1ccncc1,"inconclusive: 20.6 µM [falling, single point]",
Cc1cccc(NC(=O)c2sc3nc(-c4ccccc4)cn3c2C)n1,"inconclusive: 18.4 µM [falling, partial curve]",
Cc1ccc(NC(=O)c2sc(-n3nc(C)c(Cc4ccc5c(c4)OCO5)c3C)nc2C)cc1C,inactive,
O=C(Nc1ccc2ccccc2n1)c1ccccc1,"inconclusive: 29.1 µM [activator, single point]",
CCCSCC(=O)Nc1ncc2c(n1)-c1ccccc1CC2,"inconclusive: 20.6 µM [activator, partial curve, poor fit]",
N#Cc1ccc(Nc2nc(-c3ccc(O)cc3O)cs2)cc1C(F)(F)F,"inconclusive: 25.9 µM [falling, single point]",
CCOc1ccc(N2CC(C(=O)NNC(=O)c3ccc(F)cc3)CC2=O)cc1 (centres undefined),"inconclusive: 11.6 µM [falling, partial curve, poor fit]",
CCOc1ccc(N2CSC(=S)N(c3ccc(OCC)cc3)C2)cc1,"inconclusive: 14.6 µM [activator, partial curve]",
Cc1cc(NC(=O)c2ccc(Cl)cc2)c(C)cc1O,"inconclusive: 29.1 µM [activator, partial curve, poor fit]",
Cc1cccc(N2CCN(C(=O)c3ccc(NC(=O)CC4SC(N5CCCC5)=NC4=O)cc3)CC2)c1C (centres undefined),"inconclusive: 18.4 µM [falling, single point]",
Cc1cc(C(=O)COC(=O)c2nccnc2N)c(C)n1C,"inconclusive: 2.31 µM [activator, full curve, poor fit]",
CCN(CC)CCOC(=O)c1ccc(NC(=O)CCCN2C(=O)S/C(=C/c3ccc(OC)cc3)C2=S)cc1,"inconclusive: 20.6 µM [falling, single point]",
Cc1nn2c(C)c(C(=O)NCC(C)c3ccccc3)cnc2c1-c1ccccc1 (centres undefined),inactive,
Cc1ccnc2c1ccc1ccccc12,inactive,
CC(C)(C)OC(=O)Cc1nnc(-c2nc3ccccc3[nH]2)s1,"inconclusive: 8.2 µM [activator, partial curve]",

# Part of the list above in order of molecular weight, low to high.
SMILES,Potency,"activity change, negative = inhibition"
O=C(Nc1ccc2ccccc2n1)c1ccccc1,"inconclusive: 29.1 µM [activator, single point]",
C=CCn1c(COc2ccc(Cl)cc2)nnc1SCc1ccc(C#N)cc1,"inconclusive: 25.9 µM [falling, single point]",
COc1ccc(-n2ncc3c(SCC(=O)N4CCN(c5ccccc5OC)CC4)ncnc32)cc1,inactive,

# (list continues)

SMILES,Potency,"activity change, negative = inhibition"
O=C(NCCc1nc2ccccc2n1CCCOc1ccc(Cl)cc1)C1CCCCC1,"inconclusive: 29.1 µM [falling, single point]",
O=C(O)c1ccccc1N=N/C(=N/Nc1cc(S(=O)(=O)O)ccc1O)c1ccccc1,"inconclusive: 13 µM [falling, partial curve, poor fit]",
CCCC1=NN(c2ccc([N+](=O)[O-])cc2)C(=O)/C1=C\N(C)C,"inconclusive: 29.1 µM [activator, single point]",
CCOC(=O)C1(CCc2ccccc2)CCN(C(=O)CN2CCOC2=O)CC1,"inconclusive: 29.1 µM [activator, single point]",
Cc1cc(NC(=O)CSCC(=O)Nc2ccccc2OC(F)F)no1,inactive,
O=C(Cn1nnc(-c2ccccc2NC(=O)c2ccccc2)n1)Nc1ccc2c(c1)OCCO2,"inconclusive: 6.51 µM [falling, partial curve]",
CCOc1ccc(Nc2cc(C)nc(-n3nc(C)cc3C)n2)cc1,"inconclusive: 1.03 µM [falling, full curve, poor fit]",
COc1ccc(-c2csc(N(CC3CCCO3)C(=O)c3cccs3)n2)cc1 (centres undefined),"inconclusive: 2.91 µM [falling, full curve, poor fit]",
COc1ccc(NC(=O)CSc2nc(-c3ccco3)nc3cc(=O)[nH]n23)cc1,"inconclusive: 25.9 µM [activator, single point]",
C=CCC[C@H](Cc1ccc(F)cc1)C(=O)OC[C@H](Cc1c[nH]c2ccccc12)NC(=O)[C@@H](CC=C)CC(=O)N[C@@H](CO)Cc1ccccc1,"inconclusive: 20.6 µM [falling, single point]",
CCOc1ccccc1N1CCN(C(=O)c2cc(S(=O)(=O)N3CCCCC3)ccc2C)CC1,inactive,
Cc1ccc2c(c1)[C@H]1[C@H](CO2)[C@H](c2ccccc2)[C@]2(C)C(=O)Nc3cc(Cl)ccc3C(=O)N12,,inconclusive: 84.7% [activator]
COc1ccc(OC)c(NC(=O)N2CCc3ccccc3C2)c1,inactive,
CCOC(=O)Cn1cncc1-c1ccc([N+](=O)[O-])cc1,"inconclusive: 25.9 µM [activator, single point]",
Cc1cc(N/N=C/c2ccccc2Cl)nc(NCc2ccccc2)n1,"inconclusive: 18.4 µM [falling, single point]",
COc1cc(/C=C2\SC(=O)NC2=O)ccc1Oc1ccc([N+](=O)[O-])cn1,"inconclusive: 25.9 µM [falling, single point]",
CC(=O)N1c2ccc(S(=O)(=O)N3CCC(C(=O)Nc4ccc(C)cn4)CC3)cc2CC1C (centres undefined),active: 14.6 µM,
COc1ccc(CCNC(=O)CCCCC(=O)NCCc2ccc(OC)c(OC)c2)cc1OC,"inconclusive: 5.8 µM [falling, partial curve]",
Cc1cccc(C)c1NC(=O)CCS(=O)(=O)c1cccc2nsnc12,"inconclusive: 0.58 µM [activator, full curve, poor fit]",
O=C(Nc1ccc(-c2nnn(CC(=O)N3CCN(C(=O)c4ccco4)CC3)n2)cc1)c1ccc(F)cc1,"inconclusive: 10.3 µM [falling, partial curve, poor fit]",
